doi:10.64898/2025.12.09.693153
Changes are numbered by the printed parent chain. Results are given in words; binding and its absence hold for the method and conditions named. For some assays here: In cells and extracts the contact can be indirect. Some results given as binding are weak or reduced against the parent protein; the word gives no strength. Sequences can lack the tags named with a protein. Blank lines part the entries; values can stand above or below the binder they belong to.

Legend:
[1] = biological target: AtEBM (Arabidopsis thaliana endo-β-mannosidase), yeast two-hybrid fusion (Arabidopsis thaliana) (UniProt Q75W54); assay: two-hybrid
[2] = biological target: T1, AtATG8a, yeast two-hybrid fusion (Arabidopsis thaliana) (UniProt Q8LEM4); assay: two-hybrid
T1 sequence: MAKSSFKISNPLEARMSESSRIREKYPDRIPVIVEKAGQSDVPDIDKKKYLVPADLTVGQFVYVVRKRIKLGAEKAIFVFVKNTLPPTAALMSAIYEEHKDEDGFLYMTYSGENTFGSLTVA

[3] = biological target: T2, AtATG8a(ΔUDS), yeast two-hybrid fusion (Arabidopsis thaliana) (UniProt Q8LEM4); assay: two-hybrid
T2 sequence: T1 sequence with I77A, F78A, V79A

[4] = biological target: T3, AtNBR1, yeast two-hybrid fusion (Arabidopsis thaliana) (UniProt Q9SB64); assay: two-hybrid
T3 sequence: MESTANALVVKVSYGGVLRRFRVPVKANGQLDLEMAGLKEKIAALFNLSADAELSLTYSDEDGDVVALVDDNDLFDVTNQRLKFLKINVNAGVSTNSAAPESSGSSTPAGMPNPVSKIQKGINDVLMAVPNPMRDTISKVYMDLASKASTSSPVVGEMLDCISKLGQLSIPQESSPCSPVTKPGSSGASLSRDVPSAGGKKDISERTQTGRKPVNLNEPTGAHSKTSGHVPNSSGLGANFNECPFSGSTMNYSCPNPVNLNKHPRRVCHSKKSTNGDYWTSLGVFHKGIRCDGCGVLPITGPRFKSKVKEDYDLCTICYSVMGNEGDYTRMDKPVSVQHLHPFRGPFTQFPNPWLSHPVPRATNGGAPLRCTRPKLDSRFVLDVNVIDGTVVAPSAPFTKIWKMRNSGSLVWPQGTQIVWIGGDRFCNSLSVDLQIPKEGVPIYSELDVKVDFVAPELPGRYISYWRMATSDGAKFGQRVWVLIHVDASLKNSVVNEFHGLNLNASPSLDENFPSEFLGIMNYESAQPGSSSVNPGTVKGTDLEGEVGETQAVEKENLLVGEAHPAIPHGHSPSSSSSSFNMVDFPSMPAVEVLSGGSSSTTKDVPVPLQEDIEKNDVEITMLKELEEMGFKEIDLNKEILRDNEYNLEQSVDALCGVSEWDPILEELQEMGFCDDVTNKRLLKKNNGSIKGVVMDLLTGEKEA

[5] = biological target: AtEBM-nLUC (Arabidopsis thaliana) (UniProt Q75W54); assay: split reporter
[6] = biological target: T4, cLUC-ATG8a(ΔUDS) (Arabidopsis thaliana) (UniProt Q8LEM4); assay: split reporter
T4 sequence: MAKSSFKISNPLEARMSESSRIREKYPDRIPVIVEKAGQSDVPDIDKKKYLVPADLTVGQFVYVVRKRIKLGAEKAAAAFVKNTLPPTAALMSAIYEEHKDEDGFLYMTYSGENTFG

[7] = biological target: T5, AtNBR1, luciferase complementation fusion (Arabidopsis thaliana) (UniProt Q9SB64); assay: split reporter
T5 sequence: T3 sequence

[8] = biological target: T6, cLUC-AtATG8a (Arabidopsis thaliana) (UniProt Q8LEM4); assay: split reporter
T6 sequence: T4 sequence with A77I, A78F, A79V

binding [1]: no binding
binding [2]: binds
binding [3]: binds
binding [4]: no binding
B1: AtEBM (Arabidopsis thaliana endo-β-mannosidase), yeast two-hybrid fusion (protein, UniProt Q75W54 1-944)
chain: MAEIGKTVLDFGWIAARSTEVDVNGVQLTTTNPPAISSESRWMEAAVPGTVLGTLVKNKAIPDPFYGLENEAITDIADSGRDYYTFWFFTKFQCQRLLNQYVHLNFRAINYSAQVFVNGHKTELPKGMFRRHTLDVTDILHPESNLLALIVHPPDHPGTIPPEGGQGGDHEIGKDVAAQYVQGWDWICPIRDRNTGIWDEVSISVTGPVRIIDPHLVSTFFDDYKRAYLHVTAELENKSTWNTECSVNIQITAELENGVCLVEHLQTENVLIPAQGRIQHTFKPLYFYKPELWWPNGMGKQNLYDILITVVVNEFGESDSWMQPFGFRKIESVIDSVTGGRLFKINGEPIFIRGGNWILSDGLLRLSKERYRTDIKFHADMNMNMIRCWGGGLAERPEFYHFCDIYGLLVWQEFWITGDVDGRGVPVSNPNGPLDHELFLLCARDTVKLLRNHPSLALWVGGNEQVPPKDINEALKQDLRLHSYFETQLLSDKDSDPSVYLDGTRVYIQGSMWDGFADGKGNFTDGPYEIQYPEDFFKDTYYKYGFNPEVGSVGMPVAETIRATMPPEGWTIPLFKKGLDGFIKEVPNRMWDYHKYIPYSNPGKVHDQILMYGTPENLDDFCLKAQLVNYIQYRALFEGWSSQMWTKYTGVLIWKNQNPWTGLRGQFYDHLLDQTASFYGCRSAAEPVHVQLNLASYFVEVVNTTSKELSDVAIEASVWDLDGNCPYYKVFKIVSAPPKKVVKISEFKYPKAANPKHVYFLLLKLYTVSDKAVISRNFYWLHLPGKNYTLLEPYRKKQIPLKITCNAVMVGSRYELEVNVHNTSRANLAKNVVQEDEKRDLGLLQKLFSRCVVSADSNRGLKVVEMKGSDSGVAFFLRFSVHNAETEKQDTRILPVHYSDNYFSLVPGESMSFKISFAAPTGMKKSPRVMLQGWNYPDRFSVFG

binding [5]: no binding
binding [6]: binds
binding [7]: no binding
binding [8]: binds
B2: AtEBM-nLUC (protein, UniProt Q75W54 1-944)
chain: B1 chain
